The data set is described as follows: general procedure: Fmoc solid-phase peptide synthesis; TentaGel S PHB Fmoc-Arg(Pbf); HATU or COMU with DIPEA. The conditions noted are these: whole synthesis.

Turning to “H-GS-S(O-octanoyl)-FLSPEHQRVQQRKESKKPPAKLQPR-OH”, where the note is “scale 0.326 mmol”, the crude mass is 450 mg and the isolated mass entry is recorded as “approx. 91 mg”.
Consider H-GSSFLSPEHQRVQQRKESKKPPAKLQPR-OH, for which, where the note is “scale 0.940 mmol”, the crude mass turned out to be 600 mg and the isolated mass result is on record as “approx. 61 mg”.
